From PMC8242032, “Non-canonical function of DGCR8 in DNA double-strand break repair signaling and tumor radioresistance” (Nature Communications, 2021)
Results are given in words; binding and its absence hold for the method and conditions named. Binding seen in cells or lysates may run through a third protein. Some entries that bind do so weakly or less than the wild type. Sequences can lack the tags named with a protein.

Chains of the proteins cited; added tags and fusions are not shown.
UniProt Q14694: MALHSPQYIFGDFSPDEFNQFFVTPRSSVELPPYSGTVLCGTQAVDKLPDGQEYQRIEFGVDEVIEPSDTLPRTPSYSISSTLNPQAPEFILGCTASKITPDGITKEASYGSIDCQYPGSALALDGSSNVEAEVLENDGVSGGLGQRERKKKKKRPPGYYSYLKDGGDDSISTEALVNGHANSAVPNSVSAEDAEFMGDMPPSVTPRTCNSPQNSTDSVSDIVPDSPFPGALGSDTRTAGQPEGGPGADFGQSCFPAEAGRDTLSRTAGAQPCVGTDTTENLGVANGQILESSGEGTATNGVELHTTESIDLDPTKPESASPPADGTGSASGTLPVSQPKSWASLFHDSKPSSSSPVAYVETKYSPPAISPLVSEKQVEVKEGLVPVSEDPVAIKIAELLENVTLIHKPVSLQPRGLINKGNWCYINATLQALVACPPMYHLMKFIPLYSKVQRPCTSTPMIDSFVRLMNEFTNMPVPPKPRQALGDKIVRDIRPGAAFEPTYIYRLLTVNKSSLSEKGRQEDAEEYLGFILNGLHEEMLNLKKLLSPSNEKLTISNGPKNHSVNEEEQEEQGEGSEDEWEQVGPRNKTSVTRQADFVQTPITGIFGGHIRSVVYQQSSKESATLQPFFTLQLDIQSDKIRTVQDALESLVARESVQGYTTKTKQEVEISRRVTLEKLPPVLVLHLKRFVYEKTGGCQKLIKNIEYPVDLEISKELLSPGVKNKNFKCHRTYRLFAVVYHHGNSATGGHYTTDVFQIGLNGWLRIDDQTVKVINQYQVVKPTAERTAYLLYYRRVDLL

How the values were obtained:
Test in all cases: pull-down; SFB-tagged DUBs individually co-transfected with MYC-DGCR8 into HEK293T cells; pulldown with S-protein beads, 4 °C, 2 h; immunoblotting for FLAG and MYC; screen and confirmatory pulldown
SFB-USP10 (human) = SFB-USP10 (human) (UniProt Q14694)
SFB-USP43 (human) = biological target: T1, SFB-USP43 (human) (UniProt Q70EL4)
T1 sequence: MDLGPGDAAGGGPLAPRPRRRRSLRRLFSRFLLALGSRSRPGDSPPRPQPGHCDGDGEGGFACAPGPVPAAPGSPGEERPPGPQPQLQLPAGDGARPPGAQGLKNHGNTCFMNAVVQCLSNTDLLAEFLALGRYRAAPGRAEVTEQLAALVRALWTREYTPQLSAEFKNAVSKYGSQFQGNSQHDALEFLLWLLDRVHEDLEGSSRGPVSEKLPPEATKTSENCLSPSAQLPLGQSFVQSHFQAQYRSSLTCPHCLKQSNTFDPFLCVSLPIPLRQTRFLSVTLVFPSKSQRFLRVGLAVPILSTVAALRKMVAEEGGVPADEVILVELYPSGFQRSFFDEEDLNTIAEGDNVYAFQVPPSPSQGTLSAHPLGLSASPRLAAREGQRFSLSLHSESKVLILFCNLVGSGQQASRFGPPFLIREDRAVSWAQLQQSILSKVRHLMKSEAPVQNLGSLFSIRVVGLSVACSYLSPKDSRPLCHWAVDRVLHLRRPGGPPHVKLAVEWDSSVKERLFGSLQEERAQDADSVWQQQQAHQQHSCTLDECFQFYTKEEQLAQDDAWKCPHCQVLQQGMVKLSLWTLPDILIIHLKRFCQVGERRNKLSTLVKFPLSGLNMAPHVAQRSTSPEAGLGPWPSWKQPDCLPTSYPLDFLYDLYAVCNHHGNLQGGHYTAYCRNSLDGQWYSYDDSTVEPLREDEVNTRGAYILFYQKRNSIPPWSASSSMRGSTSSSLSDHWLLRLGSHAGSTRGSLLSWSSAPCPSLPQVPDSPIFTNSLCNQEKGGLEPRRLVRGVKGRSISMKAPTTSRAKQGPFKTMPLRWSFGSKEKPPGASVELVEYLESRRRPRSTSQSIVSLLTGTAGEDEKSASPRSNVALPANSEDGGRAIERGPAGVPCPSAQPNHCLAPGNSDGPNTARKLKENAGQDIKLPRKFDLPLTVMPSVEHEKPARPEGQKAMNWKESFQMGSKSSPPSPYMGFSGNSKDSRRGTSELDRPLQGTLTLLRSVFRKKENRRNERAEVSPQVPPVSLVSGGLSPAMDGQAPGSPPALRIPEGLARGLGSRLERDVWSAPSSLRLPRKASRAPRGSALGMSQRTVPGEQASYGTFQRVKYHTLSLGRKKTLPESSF

SFB-USP51 (human) = biological target: T2, SFB-USP51 (human) (UniProt Q70EK9)
T2 sequence: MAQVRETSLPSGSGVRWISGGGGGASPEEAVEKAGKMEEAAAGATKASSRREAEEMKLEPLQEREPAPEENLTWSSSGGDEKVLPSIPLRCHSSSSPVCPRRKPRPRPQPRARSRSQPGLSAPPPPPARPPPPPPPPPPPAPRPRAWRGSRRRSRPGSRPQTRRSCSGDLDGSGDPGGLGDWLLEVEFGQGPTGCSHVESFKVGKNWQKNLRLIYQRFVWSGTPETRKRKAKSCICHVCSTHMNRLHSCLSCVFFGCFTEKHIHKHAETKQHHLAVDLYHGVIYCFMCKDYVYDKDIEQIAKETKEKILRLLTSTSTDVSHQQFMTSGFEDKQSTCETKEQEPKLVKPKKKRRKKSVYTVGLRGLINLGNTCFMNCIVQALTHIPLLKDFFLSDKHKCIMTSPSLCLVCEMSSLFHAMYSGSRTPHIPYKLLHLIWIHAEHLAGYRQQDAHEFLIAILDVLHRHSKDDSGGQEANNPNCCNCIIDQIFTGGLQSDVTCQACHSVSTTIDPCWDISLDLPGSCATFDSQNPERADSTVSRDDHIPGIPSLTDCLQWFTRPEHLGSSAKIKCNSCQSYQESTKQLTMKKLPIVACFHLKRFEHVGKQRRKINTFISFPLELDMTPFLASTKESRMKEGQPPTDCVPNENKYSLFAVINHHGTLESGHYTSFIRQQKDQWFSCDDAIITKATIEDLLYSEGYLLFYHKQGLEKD

- binding (SFB-USP10 (human)): binds
- binding (SFB-USP43 (human)): binds
- binding (SFB-USP51 (human)): binds
B1: MYC-DGCR8 (wild-type, full-length) (protein, UniProt Q8WYQ5 1-773)
chain: METDESPSPLPCGPAGEAVMESRARPFQALPREQSPPPPLQTSSGAEVMDVGSGGDGQSELPAEDPFNFYGASLLSKGSFSKGRLLIDPNCSGHSPRTARHAPAVRKFSPDLKLLKDVKISVSFTESCRSKDRKVLYTGAERDVRAECGLLLSPVSGDVHACPFGGSVGDGVGIGGESADKKDEENELDQEKRVEYAVLDELEDFTDNLELDEEGAGGFTAKAIVQRDRVDEEALNFPYEDDFDNDVDALLEEGLCAPKKRRTEEKYGGDSDHPSDGETSVQPMMTKIKTVLKSRGRPPTEPLPDGWIMTFHNSGVPVYLHRESRVVTWSRPYFLGTGSIRKHDPPLSSIPCLHYKKMKDNEEREQSSDLTPSGDVSPVKPLSRSAELEFPLDEPDSMGADPGPPDEKDPLGAEAAPGALGQVKAKVEVCKDESVDLEEFRSYLEKRFDFEQVTVKKFRTWAERRQFNREMKRKQAESERPILPANQKLITLSVQDAPTKKEFVINPNGKSEVCILHEYMQRVLKVRPVYNFFECENPSEPFGASVTIDGVTYGSGTASSKKLAKNKAARATLEILIPDFVKQTSEEKPKDSEELEYFNHISIEDSRVYELTSKAGLLSPYQILHECLKRNHGMGDTSIKFEVVPGKNQKSEYVMACGKHTVRGWCKNKRVGKQLASQKILQLLHPHVKNWGSLLRMYGRESSKMVKQETSDKSVIELQQYAKKNKPNLHILSKLQEEMKRLAEEREETRKKPKMSIVASAQPGGEPLCTVDV
